{
  "sequences": {"note": "The chains behind the UniProt entries cited, without tags or fusion partners.", "UniProt Q8NER1, whole entry, looked up": "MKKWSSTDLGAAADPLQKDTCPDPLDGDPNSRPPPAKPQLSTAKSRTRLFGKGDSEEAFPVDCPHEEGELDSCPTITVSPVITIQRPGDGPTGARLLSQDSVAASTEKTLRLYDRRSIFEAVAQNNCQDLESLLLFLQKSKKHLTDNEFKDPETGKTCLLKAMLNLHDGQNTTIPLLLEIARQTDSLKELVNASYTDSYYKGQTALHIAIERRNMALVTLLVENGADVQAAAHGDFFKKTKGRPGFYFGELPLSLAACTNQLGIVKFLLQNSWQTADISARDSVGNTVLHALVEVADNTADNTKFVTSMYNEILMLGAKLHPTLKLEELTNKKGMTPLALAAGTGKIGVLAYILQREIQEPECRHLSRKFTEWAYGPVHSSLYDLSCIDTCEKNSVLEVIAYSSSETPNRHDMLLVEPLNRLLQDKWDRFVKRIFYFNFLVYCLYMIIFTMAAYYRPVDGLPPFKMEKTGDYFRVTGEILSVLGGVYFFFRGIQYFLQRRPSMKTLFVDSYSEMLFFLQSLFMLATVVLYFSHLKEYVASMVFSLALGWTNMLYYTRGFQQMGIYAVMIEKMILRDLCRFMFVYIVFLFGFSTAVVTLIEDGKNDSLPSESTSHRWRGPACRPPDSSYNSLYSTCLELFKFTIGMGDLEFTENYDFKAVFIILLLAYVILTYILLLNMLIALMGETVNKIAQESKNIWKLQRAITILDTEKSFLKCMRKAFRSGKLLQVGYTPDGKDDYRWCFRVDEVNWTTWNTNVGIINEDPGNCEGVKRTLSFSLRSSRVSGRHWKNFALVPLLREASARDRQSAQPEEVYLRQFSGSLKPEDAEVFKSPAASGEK"},
  "source": "PubChem BioAssay AID540275",
  "about": "(National Center for Advancing Translational Sciences (NCATS), 2011)",
  "note": "Hit rate of the full screen: of about 320,000 compounds, about 620 (0.19%) were called active. The inconclusive results got no clear call from the source; some entries with a clear call stand among them for comparison. Rule as the data show it: active = activation above about 80%; inconclusive = between about 30% and that limit; inactive = weaker than that.",
  "data": [
    {"target": "Transient receptor potential cation channel subfamily V member 1 (Homo sapiens) (UniProt Q8NER1)", "experiment": "HTS Assay for Compounds that Act as Agonists of the Vanilloid Receptor 1; as to activation: 0% is about no effect", "conditions": "TRPV1-expressing cells, Fluo-8 calcium influx, agonist mode; at 8.33 µM, hits give high values", "in_short": "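Cells expressing TRPV1 were dye-loaded with Fluo-8 and read kinetically: 10 s baseline, 3 min after compound (agonist portion), then 2 min after EC20 capsaicin (allosteric enhancer portion). Calcium-bound dye fluorescence at 480/520 nm.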", "values": [
      {"smiles": "O=C(Nc1ccc2c(c1)CCC2)c1cccc(S(=O)(=O)N2CCN(c3ccccc3)CC2)c1", "activation": "inactive: -1.68%"},
      {"smiles": "O=C(NCCc1c[nH]c2ccccc12)c1ccccc1", "activation": "inactive: 18%"},
      {"smiles": "O=C1c2ccccc2CC1(Cc1ccccc1)Cc1ccccc1", "activation": "inconclusive: 37.7%"},
      {"smiles": "CC(NCc1cccc(OCc2ccccc2)c1)C(O)c1ccccc1", "note": "(stereo not given)", "activation": "inactive: -1.64%"},
      {"smiles": "CC1(C)NC(=O)N(CCCOc2ccc(Br)cc2Cl)C1=O", "activation": "inconclusive: 42.4%"},
      {"smiles": "O=C(COC(=O)c1ccc(Br)cc1)NCc1ccccc1", "activation": "inconclusive: 40.9%"},
      {"smiles": "COc1ccc(N2CCN(C(=O)c3ccc4nc(N5CCCCC5)sc4c3)CC2)cc1", "activation": "inconclusive: 33%"},
      {"smiles": "CCN(CC(=O)NCc1ccc(Cl)cc1)C(=O)CSc1ccc(F)cc1", "activation": "inconclusive: 38.3%"},
      {"smiles": "Cc1ccc(C(=O)OC(C)C(=O)Nc2ccc(S(N)(=O)=O)cc2)cc1S(=O)(=O)N1CCOCC1", "note": "(stereo not given)", "activation": "inactive: 2.32%"},
      {"smiles": "COc1ccc2nc3oc(C(=O)N4CCCCC4)cc3cc2c1", "activation": "inconclusive: 53.8%"},
      {"smiles": "N#CC1C(C#N)N2CCCN2C1c1ccc(Br)cc1", "note": "(stereo not given)", "activation": "inactive: -2.92%"},
      {"smiles": "O=C(OCc1cccc(C(F)(F)F)c1)c1cc([N+](=O)[O-])ccc1N1CCOCC1", "activation": "inconclusive: 31.9%"},
      {"smiles": "COc1ccc(S(=O)(=O)N(C)c2ccc(C(=O)Nc3cccnc3)cc2)cc1", "activation": "inconclusive: 34.3%"},
      {"smiles": "CC(c1ccccc1)n1c(-c2ccc(C(C)(C)C)cc2)n[nH]c1=S", "note": "(stereo not given)", "activation": "inconclusive: 47%"},
      {"smiles": "CCOC(=O)N1CCN(S(=O)(=O)c2c(C)nc3scc(C)n3c2=O)CC1", "activation": "inconclusive: 57.2%"},
      {"smiles": "Cc1ccc(-c2c(C(=O)N/N=C/c3ccoc3)nnn2-c2nonc2N)cc1", "activation": "active: 87.5%"},
      {"smiles": "CCN(CC)c1ccc(NC(=O)CN(C)Cc2cccs2)cc1", "activation": "inconclusive: 61.6%"},
      {"smiles": "O=C(Nc1ccc(N2CCCCC2)cc1)c1cccnc1", "activation": "inconclusive: 56.2%"},
      {"smiles": "O=C(/C=C/c1ccco1)NC(=S)Nc1ccccc1N1CCOCC1", "activation": "inconclusive: 31.5%"},
      {"smiles": "CCOC(=O)C1(CCOc2ccccc2)CCN(Cc2ccc(O)c(OCC)c2)CC1", "activation": "inactive: 2.07%"},
      {"smiles": "O=C1C2C(c3ccccc3)C=CC(c3ccccc3)C2C(=O)N1c1ccccn1", "note": "(stereo not given)", "activation": "inconclusive: 45.8%"},
      {"smiles": "CCOC(=O)C1(CCCc2ccccc2)CCN(C2CCSCC2)CC1", "activation": "inactive: 11.2%"},
      {"smiles": "Cc1cccc(C)c1OCc1cc(C(=O)N2CCC(c3ccccc3)CC2)no1", "activation": "inconclusive: 40.1%"},
      {"smiles": "C/C(=N\\OCC(=O)OC(C)C(=O)Nc1ccc(C(N)=O)cc1)c1ccc2c(c1)OCO2", "note": "(stereo not given)", "activation": "inconclusive: 36.8%"},
      {"smiles": "Cc1ccc2[nH]c(=O)cc(C(=O)OC(C)C)c2c1", "activation": "inconclusive: 42.6%"},
      {"smiles": "CSCCNCc1cn(-c2ccc(F)cc2F)nc1-c1ccccc1C", "activation": "inconclusive: 32.5%"},
      {"smiles": "Cc1ccc(-n2cc(CN3CCCN(C=O)CC3)c(-c3ccc(F)cc3)n2)cc1", "activation": "inconclusive: 41.5%"},
      {"smiles": "CC(C)(C)c1ccc(C(=O)N2CCN(C(=O)c3ccco3)CC2)cc1", "activation": "inactive: 26.4%"},
      {"smiles": "CC(=O)NCc1cc(-c2ccc(Cl)cc2)no1", "activation": "inconclusive: 34.6%"},
      {"smiles": "CC1(C)CC(Nc2ccc(C(F)(F)F)cc2[N+](=O)[O-])CC(C)(C)N1", "activation": "inactive: -3.02%"},
      {"smiles": "CCOC(=O)C1CCN(Cc2c(O)ccc3ccccc23)CC1", "activation": "inactive: -1.36%"},
      {"smiles": "C/C(CCN1CCc2nc(-c3ccccc3)c(-c3ccccc3)cc2C1)=N\\O[C@@H](C)c1cn([C@H](CO)Cc2ccccc2)nn1", "activation": "inactive: 3.9%"},
      {"smiles": "Cc1ncsc1CCC(=O)N1CCCC(C(=O)c2cccc(Cl)c2)C1", "note": "(stereo not given)", "activation": "inconclusive: 51.1%"},
      {"smiles": "CCc1cccc(NC(=O)CCCSc2nc3ccccc3[nH]2)c1", "activation": "inconclusive: 40%"},
      {"smiles": "Cc1nc(SCC(=O)NC2CCCCC2C)c(C#N)c(C)c1C", "note": "(stereo not given)", "activation": "inactive: 11%"},
      {"smiles": "COc1ccc(C(=O)Nc2cccc3ccccc23)cc1", "activation": "inconclusive: 31.8%"},
      {"smiles": "CC(C)OC(=O)/C(C#N)=C/c1cn(Cc2ccccc2)c2ccccc12", "activation": "inconclusive: 46.5%"},
      {"smiles": "COc1cc2c(cc1OC)C1O[C@](CCCCN3C(=O)c4ccccc4C3=O)(C2)OC2=C1C(=O)CCC2", "activation": "inconclusive"},
      {"smiles": "CC(C)(C)c1ccc(C(=O)NNC(=O)c2ccncc2)cc1", "activation": "inconclusive: 41.9%"},
      {"smiles": "Cc1ccc(C(=O)NC(C)c2ccc(-n3ccnc3)cc2)cc1", "note": "(stereo not given)", "activation": "inconclusive: 30.2%"},
      {"smiles": "CCCCOC(=O)Nc1ccc(C(C)C)cc1", "activation": "active: 81.4%"},
      {"smiles": "O=C(Nc1ccccc1)C1C2CCCCC21", "note": "(stereo not given)", "activation": "inconclusive: 40.9%"},
      {"smiles": "O=C(Nc1ccccc1F)c1ccc(S(=O)(=O)N2CCCCCC2)cc1", "activation": "inconclusive: 48.7%"},
      {"smiles": "CCCCn1nnc(NC(=O)CC23CC4CC(CC(C4)C2)C3)n1", "activation": "inconclusive: 45.9%"},
      {"smiles": "CCCCn1c(Cc2ccccc2)n[nH]c1=S", "activation": "inactive: -5.56%"},
      {"smiles": "COc1ccc(/C=N\\NC(=O)c2ccccc2)cc1COc1ccc(F)cc1", "activation": "inconclusive: 71.2%"},
      {"smiles": "CCCn1c(N)c(N(CCOC)C(=O)COC(=O)c2ccccc2NCCO)c(=O)[nH]c1=O", "activation": "inactive: -0.0738%"},
      {"smiles": "CCCOc1ccc2c3c(c(=O)oc2c1OCCC)CCCC3", "activation": "inconclusive: 43.3%"},
      {"smiles": "CC(=O)N(NC(=O)c1ccc(C)cc1)C1CC(=O)N(c2ccccc2Cl)C1=O", "note": "(stereo not given)", "activation": "inactive: -2.13%"},
      {"smiles": "NNC(=O)c1csc(-c2cccc(C(F)(F)F)c2)n1", "activation": "inconclusive: 31.1%"},
      {"smiles": "CCCCSc1ccc2nc(-c3ccc(C#N)cc3)cn2c1", "activation": "inconclusive: 46.1%"},
      {"smiles": "Cc1onc(-c2c(F)cccc2Cl)c1C(=O)N(C)C1CCCCC1", "activation": "inconclusive: 33.7%"},
      {"smiles": "CC(C)C(c1nnnn1Cc1ccccc1)N1CCN(Cc2ccc3c(c2)OCO3)CC1", "note": "(stereo not given)", "activation": "inconclusive: 34.1%"},
      {"smiles": "O=C(Nc1ccc(F)c(Cl)c1)c1nsc(Cl)c1Cl", "activation": "inconclusive: 42.2%"},
      {"smiles": "Nc1c2c(nc3ccn(Cc4ccccc4)c(=O)c13)CCC2", "activation": "inactive: 1.38%"},
      {"smiles": "COCCNC(=O)CCSc1nc(-c2ccc(OC)cc2)cc(C(F)(F)F)n1", "activation": "inconclusive: 47.8%"},
      {"smiles": "Cc1ccccc1C(=O)Nc1cc(C(F)(F)F)ccc1-n1cncn1", "activation": "inconclusive: 44.1%"},
      {"smiles": "CSc1nc(C(C)C)ccc1CNC(=O)CC(C)c1ccccc1", "note": "(stereo not given)", "activation": "inconclusive: 42.5%"},
      {"smiles": "O=C(CCc1ccccc1)NNC(=O)c1ccccc1Br", "activation": "inactive: 2.33%"},
      {"smiles": "O=C(COc1ccccc1Cl)Nc1ccc2c(c1)OCCO2", "activation": "inconclusive: 31.6%"},
      {"smiles": "Cc1cc(C)c(NS(=O)(=O)c2ccc3c(c2)NC(=O)CCS3)c(C)c1", "activation": "inconclusive: 61.3%"},
      {"smiles": "O=C(NCc1nnc(SCC(=O)N2CCCc3ccccc32)o1)c1c(F)cccc1Cl", "activation": "inactive: -4.74%"},
      {"smiles": "CC(=C/c1ccccc1)/C=C1/SC(N2CCOCC2)=NC1=O", "activation": "inconclusive: 70.6%"},
      {"smiles": "CN(C)c1ccc(-c2nnc(-c3cccs3)o2)cc1", "activation": "inconclusive: 61.4%"},
      {"smiles": "CCOC(=O)Cn1c(=NC(=O)c2cc(-c3cccs3)nc3ccccc23)sc2cc(S(N)(=O)=O)ccc21", "activation": "inconclusive: 45%"},
      {"smiles": "Clc1ccc(Cn2ncc3c(NCc4ccccc4)ncnc32)cc1", "activation": "inconclusive: 55.6%"},
      {"smiles": "CC(=O)Nc1ccc(S(=O)(=O)N2CCN(c3ccc([N+](=O)[O-])cc3)CC2)cc1", "activation": "inactive: 1.83%"},
      {"smiles": "Cc1ccc2c(COC(=O)c3ccccc3Cl)cc(=O)oc2c1", "activation": "inconclusive: 55.6%"},
      {"smiles": "CC(NC(=O)c1ccco1)C(=O)N1CCN(C(c2ccccc2)c2ccccc2)CC1", "note": "(stereo not given)", "activation": "inconclusive: 45%"},
      {"smiles": "Cc1nn(-c2ccccc2)c2nc(-c3ccccc3)cc(C(=O)N3CCOCC3)c12", "activation": "inconclusive: 31%"},
      {"smiles": "O=C(CCSCc1cccc(Cl)c1)NCCc1ccccc1", "activation": "inconclusive: 54.4%"},
      {"smiles": "Cc1ccc(Cn2c(CCCO)nc3ccccc32)cc1", "activation": "inconclusive: 62.7%"},
      {"smiles": "CS(=O)(=O)Nc1ccc(C(=O)Nc2ccc3c(c2)OCO3)cc1", "activation": "inconclusive: 44.9%"},
      {"smiles": "Cc1cccc(/C=N/NC(=O)c2ccc(NC(=O)c3cccc(Cl)c3)cc2)n1", "activation": "inconclusive: 50.1%"},
      {"smiles": "CC1(C)O[C@@H]2[C@H](O1)[C@@H](COS(=O)(=O)O)O[C@H]2n1ccc(=O)[nH]c1=O", "activation": "inactive: -5.53%"},
      {"smiles": "COc1ccc(CNC(=O)CC23CC4CC(CC(C4)C2)C3)cc1", "activation": "inconclusive: 46.5%"},
      {"smiles": "COc1ccc(C(c2nnnn2CC2CCCO2)N2CCC(C(N)=O)CC2)cc1", "note": "(stereo not given)", "activation": "inactive: -4.52%"},
      {"smiles": "O=C(NCC1CCCO1)c1cc(S(=O)(=O)Nc2ccc(Br)cc2)ccc1Cl", "note": "(stereo not given)", "activation": "inactive: 1.86%"},
      {"smiles": "O=C(CCc1ccccc1)N1CCN(c2ccc(Cl)cc2)CC1", "activation": "inconclusive: 34.7%"},
      {"smiles": "O=C(/C=C/Nc1ccccc1Oc1ccccc1)c1ccco1", "activation": "inconclusive: 41.6%"},
      {"smiles": "Cc1ccccc1-n1c(C)cc(/C=N/NC(=O)c2ccncc2)c1C", "activation": "inconclusive: 55.4%"},
      {"smiles": "O=[N+]([O-])c1ccc(N2CCN(Cc3ccccc3)CC2)nc1", "activation": "inactive: -8.15%"},
      {"smiles": "O=C(/C=C/c1ccccc1)Nc1ccc(N2CCCCC2)cc1", "activation": "inconclusive: 57.3%"},
      {"smiles": "CC1=NN(C(=O)c2ccc(Cn3nc(C)c([N+](=O)[O-])c3C)cc2)C(O)(C(F)(F)F)C1", "note": "(stereo not given)", "activation": "inactive: -1.95%"},
      {"smiles": "CCC1CCCCN1C(=O)COc1ccc(F)cc1", "note": "(stereo not given)", "activation": "inactive: 0.573%"},
      {"smiles": "COC(=O)c1cccc(Nc2ncnc3ccc(C)cc23)c1", "activation": "inconclusive: 36.6%"},
      {"smiles": "CC(C)C(=O)Nc1sc2c(c1C(N)=O)CCN(Cc1ccccc1)C2", "activation": "inactive: 2.05%"},
      {"smiles": "COc1ccc(-c2csc(NC(=O)Nc3ccccc3)n2)cc1", "activation": "inconclusive: 58.3%"},
      {"smiles": "O=C(NCCC1=CCCCC1)c1cc(S(=O)(=O)N2CCOCC2)ccc1F", "activation": "inconclusive: 73.5%"},
      {"smiles": "COc1ccc(N2CCN(CCNC(=O)Nc3cccc(C)c3C)CC2)cc1", "activation": "inactive: 2.38%"}
    ]}
  ]
}
